Assay: Color of colored composition, visually evaluated
Assay type: physicochemical
Conditions: 3% by mass solution in n-hexane, visual
Procedure: Each of the dyes shown above as Exemplary Compounds D-2, D-11, D-13, D-14, D-25, D-37, E-2, E-3, and E-7 was dissolved in a solvent (n-hexane) to make a 3% by mass solution, thereby preparing a colored composition (ink). Each of the colored compositions (inks) obtained was evaluated with respect to its color, absorption maximum wavelength (λmax), absorbance (abs), absorption coefficient (∈), viscosity, and relative dielectric constant, and solubility (% by mass) of each of the dyes in a solvent.
1. Color of Colored Composition
The color of the colored composition was visually evaluated.

Structure (SMILES)	Color of Solution
CCCCCCCCCCCCN(CCCCCCCCCCCC)c1ccc(C=C2C(=O)ON=C2c2ccccc2)cc1 [D-2]	Yellow
CCCCOC(=O)CN(CC(=O)OCCCC)c1ccc(C=C2C(=O)ON=C2C(C)(C)C)cc1 [D-11]	Yellow
CCCCCCCCCCCCn1cc(C=C2C(=O)ON=C2c2ccccc2)c2ccccc21 [D-25]	Yellow
CCCCCCN(CCCCCC)c1ccc(C=C2C(=O)ON=C2C(C)(C)C)c(C)c1 [D-37]	Yellow
Cc1cc(C=C2C(=O)ON=C2C(C)(C)C)c(C)n1-c1ccc(C(=O)O)cc1 [D-101, reference compound]	Not colored
COc1ccc(C2=NOC(=O)C2=Cc2ccc(N(CC(=O)O)CC(=O)O)cc2)cc1 [D-102, reference compound]	Not colored
CCCCCCCCCCCCN(CCCCCCCCCCCC)c1ccc(C=CC=C2C(=O)ON=C2C(C)(C)C)c(C)c1 [E-2]	Red-orange
CCCCCCCCN(CCCCCCCC)c1ccc(C=CC=C2C(=O)ON=C2C(C)(C)C)c(OC)c1 [E-3]	Red
CCCCCCCCCCCCN(CCCCCCCCCCCC)c1ccc(C=CC=CC=C2C(=O)ON=C2C)c(C)c1 [E-7]	Red

Reference: patent US9482923B2, “Colored composition and image display structure” (FUJIFILM CORPORATION, priority 2011, dated 2016)
